Laboratory results published in PubChem BioAssay AID256 (DTP/NCI, 2004).
The list is a part of this screen's results and no random one: it is rich in T/C values a quarter to a half above the control, in often repeated tests (any T/C) and in doses without a T/C. Further doses and runs are listed elsewhere. T/C is the treated group as % of the vehicle group. Some entries give survivors of the animals treated and no T/C: the source files T/C as zero there, which appears to mark a toxic dose or a test without result, not a measured value. Some doses without a T/C left all or most animals alive at the check, yet need not have been tolerated: the source hardly ever lists a survival T/C far under the control, and the zero likely stands for such cases as well. Counts of survivors are from the toxicity check (mostly the fifth day) where no day follows; animals may have died later. Schedule codes are those of the source, read here as Q, the interval in days (D) or hours (H), X, the number of doses. Some molecules as drawn cover several salts, stereoisomers or complexes of the source; a dose is that of the sample tested. Where survival is the endpoint, this PubChem deposit counts one and a half times the control or more as active, and values a quarter to a half above the control carry no call in these data; other NCI protocols may use other cut-offs. Additions like (4×) give the number of equal values in this list. Some entries were tested several times; their values stand side by side, smallest first. Some T/C values carry the count of animals alive at the toxicity check (mostly the fifth day); without a count, all were alive then.

System: CD2F1 mice, L1210 leukemia ip, survival T/C
Experiment: NCI In Vivo Anticancer Drug Screen. Data for tumor model L1210 Leukemia (intraperitoneal) in CD2F1 (CDF1) mice
Conditions: higher T/C = longer survival
Procedure: The antitumor activity of compounds was measured in mice bearing transplantable tumors. Survival or tumor size were measured and the results are expressed as the measurement made in the treated group (T) divided by the measurement made in the vehicle treated control group (C). The tumor model used in this assay is L1210 Leukemia (intraperitoneal) in CD2F1 (CDF1) mice

[1] = T/C endpoint: mean survival time, dose: 100.0 mg/kg/injection, schedule: Q04DX003 (ip), vehicle: saline with Tween-80
[2] = T/C endpoint: mean survival time, dose: 200.0 mg/kg/injection, schedule: Q04DX003 (ip), vehicle: saline with Tween-80
[3] = T/C endpoint: mean survival time, dose: 400.0 mg/kg/injection, schedule: Q04DX003 (ip), vehicle: saline with Tween-80
[4] = T/C endpoint: mean survival time, dose: 400.0 mg/kg/injection, schedule: Q01DX009 (ip), vehicle: saline with Tween-80
[5] = T/C endpoint: mean survival time, dose: 200.0 mg/kg/injection, schedule: Q01DX009 (ip), vehicle: saline with Tween-80
[6] = T/C endpoint: mean survival time, dose: 25.0 mg/kg/injection, schedule: Q04DX003 (ip), vehicle: saline with Tween-80
[7] = T/C endpoint: mean survival time, dose: 100.0 mg/kg/injection, schedule: Q04DX003 (ip), vehicle: saline
[8] = T/C endpoint: mean survival time, dose: 200.0 mg/kg/injection, schedule: Q01DX001 (ip), vehicle: saline
[9] = T/C endpoint: mean survival time, dose: 200.0 mg/kg/injection, schedule: Q04DX003 (ip), vehicle: saline
[10] = T/C endpoint: mean survival time, dose: 400.0 mg/kg/injection, schedule: Q01DX001 (ip), vehicle: saline

In the case of `NC(N)=N/N=C/c1ccc(Cl)c(Cl)c1`, the survivor count [1] is reported as 6 of 6, the survivor count [2] is reported as 5 of 6 and the survivor count [3] is reported as 3 of 6.
`CCCCCCCCCC(=O)NC(=S)Nc1c(C)cccc1C` was tested, and the survivor count (T/C endpoint: mean survival time, dose: 100.0 mg/kg/injection, schedule: Q01DX001 (ip), vehicle: saline with Tween-80) was 6 of 6 and the survivor count [4] was 3 of 6.
For `CN1CC=C(c2ccccc2)C(Br)C1` (configuration not stated), the survivor count (T/C endpoint: mean survival time, dose: 100.0 mg/kg/injection, schedule: Q01DX009 (ip), vehicle: saline with Tween-80) was 3 of 6, the survivor count [5] was 0 of 6 and the survivor count [4] was 0 of 6.
For `COc1ccc(-c2nccc3cc(OC)c(OC)cc23)cc1OC`, the survivor count (T/C endpoint: mean survival time, dose: 100.0 mg/kg/injection, schedule: Q01DX009 (ip), vehicle: water) was 3 of 6 and the survivor count (T/C endpoint: mean survival time, dose: 200.0 mg/kg/injection, schedule: Q01DX009 (ip), vehicle: water) was 3 of 6.
With `O=C(c1ccccc1)C(C(O)CCl)C(O)(C(F)(F)F)C(F)(F)F` (configuration not stated) the survivor count [4] was 4 of 6.
With `COc1cccc(CC(C)N)c1OC` (configuration not stated) the survivor count [2] was 0 of 6 and the survivor count [3] was 0 of 6.
For `Clc1c(Br)nc(Br)nc1C(Cl)(Cl)Cl`, the survivor count [6] was 4 of 6, the survivor count (T/C endpoint: mean survival time, dose: 50.0 mg/kg/injection, schedule: Q04DX003 (ip), vehicle: saline with Tween-80) was 2 of 6 and the survivor count [1] was 0 of 6.
In the case of `CCOP(=O)(OCC)C1=C(P(=O)(OCC)OCC)C(F)(F)C(F)(F)C1(F)F`, the survivor count (T/C endpoint: mean survival time, dose: 150.0 mg/kg/injection, schedule: Q01DX001 (ip), vehicle: other) is reported as 0 of 6 and the survivor count (T/C endpoint: mean survival time, dose: 300.0 mg/kg/injection, schedule: Q01DX001 (ip), vehicle: other) is reported as 0 of 6.
`CCCCCC(C)N` (configuration not stated) was tested, and the survivor count (T/C endpoint: mean survival time, dose: 100.0 mg/kg/injection, schedule: Q01DX001 (ip), vehicle: saline) was 2 of 4, the survivor count [7] was 3 of 6 and the survivor count [8] was 1 of 4. The survivor count [9] was 0 of 6, the survivor count [10] was 0 of 4 and the survivor count (T/C endpoint: mean survival time, dose: 400.0 mg/kg/injection, schedule: Q04DX003 (ip), vehicle: saline) was 0 of 6.
For `CCOc1ccc(OCC)c(NC(=O)Nc2ccccc2C)c1`, the survivor count (T/C endpoint: mean survival time, dose: 100.0 mg/kg/injection, schedule: Q04DX002 (ip), vehicle: saline with Tween-80) was 3 of 3 and the survivor count (T/C endpoint: mean survival time, dose: 200.0 mg/kg/injection, schedule: Q04DX002 (ip), vehicle: saline with Tween-80) was 3 of 3.
`O=C(C[n+]1ccccc1)N/N=C/c1ccccc1Cl` was tested, and the survivor count [5] was 0 of 6 and the survivor count [4] was 0 of 6.
With `CC(=O)N(C)O` the T/C (T/C endpoint: median survival time, dose: 100.0 mg/kg/injection, schedule: Q01DX009 (ip), vehicle: saline with Tween-80) was 125 % of control, the T/C (T/C endpoint: median survival time, dose: 200.0 mg/kg/injection, schedule: Q01DX009 (ip), vehicle: saline with Tween-80) was 149 % of control and the survivor count (T/C endpoint: median survival time, dose: 400.0 mg/kg/injection, schedule: Q01DX009 (ip), vehicle: saline with Tween-80) was 6 of 6.
In the case of `Cc1c(Cl)cccc1NC(=O)Oc1ccc(Cl)cc1Cl`, the survivor count [3] is reported as 6 of 6.
`CCOP(=[Se])(OCC)[Se][Se][Se]P(=[Se])(OCC)OCC` was tested, and the survivor count [8] was 2 of 6 and the survivor count [10] was 3 of 6.
With `CC[C@@]1(OP(=O)(O)O)C(=O)OCc2c1cc1n(c2=O)Cc2cc3ccccc3nc2-1` the T/C (T/C endpoint: median survival time, dose: 8.25 mg/kg/injection, schedule: Q04HX004 (iv), vehicle: water) was 142 % of control, the T/C (T/C endpoint: median survival time, dose: 22.0 mg/kg/injection, schedule: Q04DX002 (ip), vehicle: water) was 125 and 132 % of control and the survivor count (T/C endpoint: median survival time, dose: 44.0 mg/kg/injection, schedule: Q04HX004 (iv), vehicle: water) was 1 of 6.
In the case of `CCCCCOc1ccccc1Cl`, the survivor count (T/C endpoint: mean survival time, dose: 400.0 mg/kg/injection, schedule: Q04DX002 (ip), vehicle: saline with Tween-80) is reported as 0 of 3.
With `CCCCC(CC)C(=O)[O][Sn]([CH2]CCC)([CH2]CCC)[O]C(=O)C(CC)CCCC` (configuration not stated) the survivor count (T/C endpoint: mean survival time, dose: 12.5 mg/kg/injection, schedule: Q04DX003 (ip), vehicle: saline with Tween-80) was 1 of 6 and the survivor count [6] was 0 of 6.
With `COc1cc(OC)c(/C=C/c2cc3ccccc3c[n+]2C)c(OC)c1` the survivor count (T/C endpoint: mean survival time, dose: 12.5 mg/kg/injection, schedule: Q01DX009 (ip), vehicle: saline with Tween-80) was 0 of 3.
In the case of `CC1=NN(c2cccc(S(=O)(=O)O)c2)C(=O)C1`, the survivor count (T/C endpoint: mean survival time, dose: 200.0 mg/kg/injection, schedule: Q01DX009 (ip), vehicle: saline sonified) is reported as 5 of 6 and the survivor count (T/C endpoint: mean survival time, dose: 400.0 mg/kg/injection, schedule: Q01DX009 (ip), vehicle: saline sonified) is reported as 3 of 6.
In the case of `[Cl][Pt+2][Cl].[NH-]CC(C[NH-])(Cc1ccccc1)Cc1ccccc1`, the T/C (T/C endpoint: mean survival time, dose: 3.12 mg/kg/injection, schedule: Q04DX003 (ip), vehicle: saline) is reported as 125 % of control, the T/C (T/C endpoint: mean survival time, dose: 25.0 mg/kg/injection, schedule: Q04DX003 (ip), vehicle: saline) is reported as 131 % of control and the T/C (T/C endpoint: mean survival time, dose: 50.0 mg/kg/injection, schedule: Q04DX003 (ip), vehicle: saline) is reported as 127 and 135 % of control. For the same molecule, the T/C [7] was 137 % of control (2×) and the T/C [9] was 138 % of control.
In the case of `O=C1C(N2CC2)=C(N2CCCC(O)C2)C(=O)C(N2CC2)=C1N1CCCC(O)C1` (configuration not stated), the T/C (T/C endpoint: mean survival time, dose: 1.0 mg/kg/injection, schedule: Q01DX009 (ip), vehicle: saline) is reported as 134 and 143 % of control and the T/C (T/C endpoint: mean survival time, dose: 4.0 mg/kg/injection, schedule: Q01DX009 (ip), vehicle: saline) is reported as 141 and 145 % of control.
With `CCCCCCCC/C=C\CCCCCCCC(=O)N1CC[N+](C)(C)CC1` the survivor count (T/C endpoint: mean survival time, dose: 75.0 mg/kg/injection, schedule: Q01DX001 (ip), vehicle: saline) was 0 of 6, the survivor count (T/C endpoint: mean survival time, dose: 150.0 mg/kg/injection, schedule: Q01DX001 (ip), vehicle: saline) was 0 of 6 and the survivor count (T/C endpoint: mean survival time, dose: 300.0 mg/kg/injection, schedule: Q01DX001 (ip), vehicle: saline) was 0 of 6.
For `CN1C(=O)C=CC1=O`, the survivor count (T/C endpoint: mean survival time, dose: 8.0 mg/kg/injection, schedule: Q01DX009 (ip), vehicle: saline) was 0 of 6.
In the case of `Cc1ccccc1N`, the survivor count [4] is reported as 3 of 6.
With `O=C1CN(Cl)C(=O)CN1Cl` the survivor count (T/C endpoint: mean survival time, dose: 300.0 mg/kg/injection, schedule: Q04DX002 (ip), vehicle: saline with Tween-80) was 0 of 3.
In the case of `O=C(O)c1ccc(Nc2c3ccccc3nc3ccccc23)cc1`, the T/C (T/C endpoint: mean survival time, dose: 20.0 mg/kg/injection, schedule: Q01DX009 (ip), vehicle: Klucel (hydroxypropylcellulose) (HPC)) is reported as 127 % of control, the T/C (T/C endpoint: mean survival time, dose: 30.0 mg/kg/injection, schedule: Q01DX009 (ip), vehicle: Klucel (hydroxypropylcellulose) (HPC)) is reported as 147 % of control and the T/C (T/C endpoint: mean survival time, dose: 44.0 mg/kg/injection, schedule: Q04DX003 (ip), vehicle: Klucel (hydroxypropylcellulose) (HPC)) is reported as 127 % of control. For the same molecule, the T/C (T/C endpoint: mean survival time, dose: 66.0 mg/kg/injection, schedule: Q04DX003 (ip), vehicle: Klucel (hydroxypropylcellulose) (HPC)) was 136 % of control, the T/C (T/C endpoint: mean survival time, dose: 75.0 mg/kg/injection, schedule: Q04DX002 (ip), vehicle: Klucel (hydroxypropylcellulose) (HPC)) was 140 % of control and the T/C (T/C endpoint: mean survival time, dose: 88.0 mg/kg/injection, schedule: Q04DX002 (ip), vehicle: Klucel (hydroxypropylcellulose) (HPC)) was 139 % of control. For the same molecule, the T/C (T/C endpoint: mean survival time, dose: 133.0 mg/kg/injection, schedule: Q01DX001 (ip), vehicle: Klucel (hydroxypropylcellulose) (HPC)) was 134 % of control, the T/C (T/C endpoint: mean survival time, dose: 150.0 mg/kg/injection, schedule: Q01DX001 (ip), vehicle: Klucel (hydroxypropylcellulose) (HPC)) was 134 % of control and the survivor count (T/C endpoint: mean survival time, dose: 150.0 mg/kg/injection, schedule: Q01DX009 (ip), vehicle: Klucel (hydroxypropylcellulose) (HPC)) was 6 of 6. For the same molecule, the T/C (T/C endpoint: mean survival time, dose: 200.0 mg/kg/injection, schedule: Q01DX001 (ip), vehicle: Klucel (hydroxypropylcellulose) (HPC)) was 147 % of control, the T/C (T/C endpoint: mean survival time, dose: 450.0 mg/kg/injection, schedule: Q01DX001 (ip), vehicle: Klucel (hydroxypropylcellulose) (HPC)) was 147 % of control [5 of 6 alive] and the survivor count (T/C endpoint: mean survival time, dose: 600.0 mg/kg/injection, schedule: Q01DX001 (ip), vehicle: Klucel (hydroxypropylcellulose) (HPC)) was 0 of 6. For the same molecule, the survivor count (T/C endpoint: mean survival time, dose: 600.0 mg/kg/injection, schedule: Q04DX002 (ip), vehicle: Klucel (hydroxypropylcellulose) (HPC)) was 1 of 6 and the survivor count (T/C endpoint: mean survival time, dose: 600.0 mg/kg/injection, schedule: Q04DX003 (ip), vehicle: Klucel (hydroxypropylcellulose) (HPC)) was 2 of 6.
`COc1ccc(C2(C(=O)O)CC(C)=C(C)CC2C(=O)O)cc1` (configuration not stated) was tested, and the survivor count [5] was 3 of 6 and the survivor count [3] was 1 of 6.
